Experimental data reported in paper PMC7242464.
Results are given in words; binding and its absence hold for the method and conditions named. In cells and extracts the contact can be indirect. Some results given as binding are weak or reduced against the parent protein; the word gives no strength.

Target: T1, SET8 (human (endogenous in HUVECs)) (UniProt Q9NQR1)
T1 sequence: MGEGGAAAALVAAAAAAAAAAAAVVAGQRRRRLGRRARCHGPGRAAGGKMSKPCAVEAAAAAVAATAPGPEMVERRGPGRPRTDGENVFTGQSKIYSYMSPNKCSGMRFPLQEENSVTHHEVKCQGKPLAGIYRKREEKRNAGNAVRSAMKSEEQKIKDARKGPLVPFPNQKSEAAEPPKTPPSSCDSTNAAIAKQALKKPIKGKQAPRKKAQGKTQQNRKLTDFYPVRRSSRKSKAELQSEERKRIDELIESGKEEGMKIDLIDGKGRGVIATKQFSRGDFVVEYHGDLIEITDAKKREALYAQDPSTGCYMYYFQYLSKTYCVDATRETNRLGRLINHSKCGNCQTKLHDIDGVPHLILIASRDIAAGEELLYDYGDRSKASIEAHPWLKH
Test: co-IP; endogenous IP from HUVEC whole-cell lysates; primary antibodies and protein A/G Dynabeads at 4 °C overnight; input and IP fractions by western blotting

B1: E74-like ETS transcription factor 3 (ELF3) (protein, UniProt P78545 1-371)
chain: MAATCEISNIFSNYFSAMYSSEDSTLASVPPAATFGADDLVLTLSNPQMSLEGTEKASWLGEQPQFWSKTQVLDWISYQVEKNKYDASAIDFSRCDMDGATLCNCALEELRLVFGPLGDQLHAQLRDLTSSSSDELSWIIELLEKDGMAFQEALDPGPFDQGSPFAQELLDDGQQASPYHPGSCGAGAPSPGSSDVSTAGTGASRSSHSSDSGGSDVDLDPTDGKLFPSDGFRDCKKGDPKHGKRKRGRPRKLSKEYWDCLEGKKSKHAPRGTHLWEFIRDILIHPELNEGLMKWENRHEGVFKFLRSEAVAQLWGQKKKNSNMTYEKLSRAMRYYYKREILERVDGRRLVYKFGKNSSGWKEEEVLQSRN
  binding: binds
